Data as given in PubChem BioAssay AID1508588 (Peter MacCallum Cancer Centre, 2020).

Aim: 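Knock-downs boosting vemurafenib effects on melanoma cell growth or lactate release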 (primary screen)
Cell system: human WM266.4 melanoma cells (BRAF V600 mutant)
Knock-down reagent: siRNA pool against human genes, 40 nM
Duration: 96 h from transfection to read-out
Conditions: vemurafenib 300 nM (about IC25), added 48 h after transfection, for 48 h; comparison arm got DMSO vehicle only
Measurement: 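Cell gain (DAPI nuclei at end minus before drug, mean of two replicates) and medium lactate by absorbance per cell, both as ratio to non-targeting siRNA, also grouped into fold-change classes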
Reading the numbers: cell gain with vemurafenib: higher = more cell gain than with non-targeting siRNA; lactate per cell with vemurafenib: higher = more lactate made per cell
Call rule: 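a knock-down counts as enhancing when its fold-change classes with vehicle and with vemurafenib, taken together, show a stronger drug effect on cell gain or lactate per cell; exact class pairs not stated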
Meaning of the calls: active = enhances vemurafenib effect; inactive = no enhancement seen
The deposit covers about 18,000 reagents; shown is a part drawn at random. Over the whole deposit, 790 (4.4%) are marked active. 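Calls rest on a combination of fold-change classes in drug and vehicle arms, not all shown here.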 Entries without a mark were called inactive.

How did the screen score SIGLEC1 (GeneID 6614)?
cell gain with vemurafenib: 0.41; lactate per cell with vemurafenib: 1.2

How did the screen score ABCD4 (GeneID 5826)?
cell gain with vemurafenib: 0.39; lactate per cell with vemurafenib: 0.55

What is on record for EIF5A2 (GeneID 56648)?
cell gain with vemurafenib: 0.44; lactate per cell with vemurafenib: 0.88

For BRPF1 (GeneID 7862), what does the deposit list?
cell gain with vemurafenib: 0.15; lactate per cell with vemurafenib: 1.34

What did the screen give for HLA-F (GeneID 3134)?
cell gain with vemurafenib: 0.91; lactate per cell with vemurafenib: 0.7

With PCDHA8 (GeneID 56140), how do the results read?
cell gain with vemurafenib: 0.57; lactate per cell with vemurafenib: 0.94

What did the screen give for RAN (GeneID 5901)?
cell gain with vemurafenib: -0.14; lactate per cell with vemurafenib: 2.71

How did the screen score ITPKB (GeneID 3707)?
cell gain with vemurafenib: 0.76; lactate per cell with vemurafenib: 0.84

For PI4K2A (GeneID 55361), what was measured?
cell gain with vemurafenib: 0.62; lactate per cell with vemurafenib: 1.02

How did the screen score ACAD9 (GeneID 28976)?
cell gain with vemurafenib: 0.81; lactate per cell with vemurafenib: 0.97

How did the screen score PPIL4 (GeneID 85313)?
cell gain with vemurafenib: 0.19; lactate per cell with vemurafenib: 1.51

With CASP8AP2 (GeneID 9994), what was measured?
cell gain with vemurafenib: -0.02; lactate per cell with vemurafenib: 1.69

Which result is listed for TMEM70 (GeneID 54968)?
cell gain with vemurafenib: 0.62; lactate per cell with vemurafenib: 0.83

Which result is listed for METTL4 (GeneID 64863)?
cell gain with vemurafenib: 0.89; lactate per cell with vemurafenib: 0.72

For ADD3 (GeneID 120), what was measured?
cell gain with vemurafenib: 0.58; lactate per cell with vemurafenib: 1.07

How did the screen score CREB3L2 (GeneID 64764)?
cell gain with vemurafenib: -0.08; lactate per cell with vemurafenib: 1.88

For DLX5 (GeneID 1749), what was measured?
cell gain with vemurafenib: 1.22; lactate per cell with vemurafenib: 0.86

How did the screen score RASGRP2 (GeneID 10235)?
cell gain with vemurafenib: 0.46 (active); lactate per cell with vemurafenib: 0.12

For CSNK1G2 (GeneID 1455), how do the results read?
cell gain with vemurafenib: 0.76; lactate per cell with vemurafenib: 0.8

What did the screen give for PDK2 (GeneID 5164)?
cell gain with vemurafenib: 0.55; lactate per cell with vemurafenib: 0.97

What did the screen give for HOXB6 (GeneID 3216)?
cell gain with vemurafenib: 0.43; lactate per cell with vemurafenib: 2.09

For PCGF5 (GeneID 84333), what does the deposit list?
cell gain with vemurafenib: 0.89; lactate per cell with vemurafenib: 0.84

What did the screen give for DIRAS1 (GeneID 148252)?
cell gain with vemurafenib: 0.56; lactate per cell with vemurafenib: 1.7

For NIN (GeneID 51199), how do the results read?
cell gain with vemurafenib: 0.44; lactate per cell with vemurafenib: 1.01

For ZNF781 (GeneID 163115), how do the results read?
cell gain with vemurafenib: 0.53; lactate per cell with vemurafenib: 1.4

What is on record for FAM133A (GeneID 286499)?
cell gain with vemurafenib: 0.53; lactate per cell with vemurafenib: 1.83

For KLK5 (GeneID 25818), how do the results read?
cell gain with vemurafenib: 0.19; lactate per cell with vemurafenib: 0.92

How did the screen score TRIM75 (GeneID 391714)?
cell gain with vemurafenib: 1.07; lactate per cell with vemurafenib: 0.9

How did the screen score AMOTL1 (GeneID 154810)?
cell gain with vemurafenib: 0.53; lactate per cell with vemurafenib: 1.66

How did the screen score CDC23 (GeneID 8697)?
cell gain with vemurafenib: 0.55; lactate per cell with vemurafenib: 0.51

What is on record for CKMT1B (GeneID 1159)?
cell gain with vemurafenib: 0.79; lactate per cell with vemurafenib: 1.12

For FHL1 (GeneID 2273), what does the deposit list?
cell gain with vemurafenib: 0.58 (active); lactate per cell with vemurafenib: -0.1

How did the screen score THRA (GeneID 7067)?
cell gain with vemurafenib: 1.02; lactate per cell with vemurafenib: 0.6

For DUOXA2 (GeneID 405753), how do the results read?
cell gain with vemurafenib: 0.55; lactate per cell with vemurafenib: 1.07

For HRH3 (GeneID 11255), what was measured?
cell gain with vemurafenib: 1.02; lactate per cell with vemurafenib: 0.64

For ATP6V0E1 (GeneID 8992), what does the deposit list?
cell gain with vemurafenib: 0; lactate per cell with vemurafenib: 3.46

For TOR1B (GeneID 27348), what was measured?
cell gain with vemurafenib: 0.43; lactate per cell with vemurafenib: 0.86

With INPP5J (GeneID 27124), how do the results read?
cell gain with vemurafenib: 0.92; lactate per cell with vemurafenib: 0.4

What is on record for TRIM72 (GeneID 493829)?
cell gain with vemurafenib: 0.53; lactate per cell with vemurafenib: 0.8

What is on record for XIRP1 (GeneID 165904)?
cell gain with vemurafenib: -0.02; lactate per cell with vemurafenib: 2.82

How did the screen score SPATA6 (GeneID 54558)?
cell gain with vemurafenib: 0.48; lactate per cell with vemurafenib: 0.8

What did the screen give for GIMAP8 (GeneID 155038)?
cell gain with vemurafenib: 0.63; lactate per cell with vemurafenib: 1.61

What is on record for EFCAB6 (GeneID 64800)?
cell gain with vemurafenib: 0.8; lactate per cell with vemurafenib: 1.25

For TREML2 (GeneID 79865), how do the results read?
cell gain with vemurafenib: 0.34; lactate per cell with vemurafenib: 0.84

For CKAP5 (GeneID 9793), what was measured?
cell gain with vemurafenib: -0.07; lactate per cell with vemurafenib: 0.74

With PENK (GeneID 5179), what does the deposit list?
cell gain with vemurafenib: -0.01 (active); lactate per cell with vemurafenib: 0.14

What is on record for SEPHS1 (GeneID 22929)?
cell gain with vemurafenib: 0.66; lactate per cell with vemurafenib: 1.29

For OAZ2 (GeneID 4947), what was measured?
cell gain with vemurafenib: 0.93; lactate per cell with vemurafenib: 1.23

What did the screen give for RAD21 (GeneID 5885)?
cell gain with vemurafenib: 0.12; lactate per cell with vemurafenib: 0.6

What is on record for BUB1 (GeneID 699)?
cell gain with vemurafenib: 0.47; lactate per cell with vemurafenib: 1.56

What did the screen give for CCDC12 (GeneID 151903)?
cell gain with vemurafenib: 0.72; lactate per cell with vemurafenib: 0.32

For TASOR (GeneID 23272), what does the deposit list?
cell gain with vemurafenib: 0.49; lactate per cell with vemurafenib: 1.58

8 successive records already listed, quoted:
NIN (GeneID 51199) — cell gain with vemurafenib = 0.44; lactate per cell with vemurafenib = 1.01
ZNF781 (GeneID 163115) — cell gain with vemurafenib = 0.53; lactate per cell with vemurafenib = 1.4
FAM133A (GeneID 286499) — cell gain with vemurafenib = 0.53; lactate per cell with vemurafenib = 1.83
KLK5 (GeneID 25818) — cell gain with vemurafenib = 0.19; lactate per cell with vemurafenib = 0.92
TRIM75 (GeneID 391714) — cell gain with vemurafenib = 1.07; lactate per cell with vemurafenib = 0.9
AMOTL1 (GeneID 154810) — cell gain with vemurafenib = 0.53; lactate per cell with vemurafenib = 1.66
CDC23 (GeneID 8697) — cell gain with vemurafenib = 0.55; lactate per cell with vemurafenib = 0.51
CKMT1B (GeneID 1159) — cell gain with vemurafenib = 0.79; lactate per cell with vemurafenib = 1.12
